Results as given in PubChem BioAssay AID248 (DTP/NCI, 2004).
The list shows only some results of the screen, not a fair sample: it gathers tests that were run many times, whatever their T/C, doses with no T/C, and many T/C values between a quarter and a half above the control. Other doses and runs of a compound stand elsewhere. T/C is the treated group as % of the vehicle group. Some doses have a count of surviving animals in place of a T/C: the source holds a T/C of zero for them, seemingly a mark for toxic or unscored doses. Some doses without a T/C left all or most animals alive at the check, yet need not have been tolerated: the source hardly ever lists a survival T/C far under the control, and the zero likely stands for such cases as well. Survivors were counted at the toxicity check, usually on the fifth day, unless a day is given; later deaths do not show. Schedule codes are those of the source, read here as Q, the interval in days (D) or hours (H), X, the number of doses. Some doses were run more than once; the results are listed from low to high. For survival time, this PubChem deposit counts one and a half times the control or more as active, and values a quarter to a half above the control carry no call in these data; other NCI protocols may use other cut-offs. Signs of the kind (2×) give the number of equal values in this list. Some schedule codes hold Z or #, which are not explained here. Some T/C values are followed by the survivors on the day toxicity was checked, most often the fifth; without a count, all were alive then.

Tested on: L1210 leukemia ip in BDF1 mice, survival T/C
Assay: NCI In Vivo Anticancer Drug Screen. Data for tumor model L1210 Leukemia (intraperitoneal) in B6D2F1 (BDF1) mice
Conditions: higher T/C = longer survival
[1] = T/C endpoint: mean survival time, dose: 2400.0 mg/kg/injection, schedule: Q01DX009 (ip), vehicle: saline

`C[C@H](N)C(=O)N[C@@H]1[C@H]2C(=C(O)C[C@@H](O)[C@@H]2O)C(=O)O[C@@H]1C` was tested, and the T/C (T/C endpoint: mean survival time, dose: 75.0 mg/kg/injection, schedule: Q01DX010 (ip), vehicle: saline) was 127 % of control [5 of 6 alive], the T/C (T/C endpoint: mean survival time, dose: 100.0 mg/kg/injection, schedule: Q01DX Z (ip), vehicle: saline) was 127 % of control and the T/C (T/C endpoint: mean survival time, dose: 100.0 mg/kg/injection, schedule: Q#A X Z (ip), vehicle: saline) was 132 % of control. The T/C (T/C endpoint: mean survival time, dose: 140.0 mg/kg/injection, schedule: Q01DX015 (ip), vehicle: saline) was 130 % of control, the T/C (T/C endpoint: mean survival time, dose: 150.0 mg/kg/injection, schedule: Q01DX009 (ip), vehicle: saline) was 135 % of control and the T/C (T/C endpoint: mean survival time, dose: 150.0 mg/kg/injection, schedule: Q01DX010 (ip), vehicle: saline) was 121, 123, 125, 129, 130, 133 % of control. The T/C (T/C endpoint: mean survival time, dose: 200.0 mg/kg/injection, schedule: Q01DX Z (ip), vehicle: saline) was 139 % of control, the T/C (T/C endpoint: mean survival time, dose: 211.0 mg/kg/injection, schedule: Q01DX015 (ip), vehicle: saline) was 136 and 137 % of control and the T/C (T/C endpoint: mean survival time, dose: 222.0 mg/kg/injection, schedule: Q02DX004 (ip), vehicle: saline) was 125 % of control. For the same compound, the T/C (T/C endpoint: mean survival time, dose: 250.0 mg/kg/injection, schedule: Q01DX Z (ip), vehicle: saline) was 125 % of control, the T/C (T/C endpoint: mean survival time, dose: 300.0 mg/kg/injection, schedule: Q01DX009 (ip), vehicle: saline, evaluated on day 30) was 131, 135, 140, 142 % of control and the T/C (T/C endpoint: mean survival time, dose: 300.0 mg/kg/injection, schedule: Q01DX009 (ip), vehicle: saline, evaluated on day 60) was 139 % of control. The T/C (T/C endpoint: mean survival time, dose: 300.0 mg/kg/injection, schedule: Q01DX010 (ip), vehicle: saline) was 132 (2×), 140, 142 % of control, the T/C (T/C endpoint: mean survival time, dose: 300.0 mg/kg/injection, schedule: Q01DX015 (ip), vehicle: saline) was 142 % of control and the T/C (T/C endpoint: mean survival time, dose: 300.0 mg/kg/injection, schedule: Q01DX Z (ip), vehicle: saline) was 143 % of control. For the same compound, the T/C (T/C endpoint: mean survival time, dose: 300.0 mg/kg/injection, schedule: Q03DX Z (ip), vehicle: saline) was 125 % of control, the T/C (T/C endpoint: mean survival time, dose: 400.0 mg/kg/injection, schedule: Q01DX Z (im), vehicle: saline) was 145 % of control and the T/C (T/C endpoint: mean survival time, dose: 400.0 mg/kg/injection, schedule: Q01DX Z (sc), vehicle: saline) was 137 % of control. For the same compound, the T/C (T/C endpoint: mean survival time, dose: 400.0 mg/kg/injection, schedule: Q#A X Z (ip), vehicle: saline) was 141 % of control, the T/C (T/C endpoint: mean survival time, dose: 500.0 mg/kg/injection, schedule: Q01DX Z (ip), vehicle: saline) was 145 % of control and the T/C (T/C endpoint: mean survival time, dose: 500.0 mg/kg/injection, schedule: Q02DX004 (ip), vehicle: saline) was 126 % of control. The T/C (T/C endpoint: mean survival time, dose: 600.0 mg/kg/injection, schedule: Q01DX009 (ip), vehicle: saline, evaluated on day 30) was 131, 148, 151 % of control (2×), the T/C (T/C endpoint: mean survival time, dose: 600.0 mg/kg/injection, schedule: Q01DX009 (ip), vehicle: saline, evaluated on day 60) was 157 % of control and the T/C (T/C endpoint: mean survival time, dose: 600.0 mg/kg/injection, schedule: Q01DX010 (ip), vehicle: saline) was 159, 162, 166, 181 % of control. For the same compound, the T/C (T/C endpoint: mean survival time, dose: 600.0 mg/kg/injection, schedule: Q03DX Z (ip), vehicle: saline) was 135 % of control, the T/C (T/C endpoint: mean survival time, dose: 750.0 mg/kg/injection, schedule: Q02DX004 (ip), vehicle: saline) was 129 % of control and the survivor count (T/C endpoint: mean survival time, dose: 800.0 mg/kg/injection, schedule: Q01DX006 (iv), vehicle: saline) was 2 of 6. The T/C (T/C endpoint: mean survival time, dose: 800.0 mg/kg/injection, schedule: Q## X032 (ip), vehicle: saline) was 126 % of control, the T/C (T/C endpoint: mean survival time, dose: 1000.0 mg/kg/injection, schedule: Q01DX Z (ip), vehicle: saline) was 145 % of control and the T/C (T/C endpoint: mean survival time, dose: 1080.0 mg/kg/injection, schedule: Q01DX015 (ip), vehicle: saline) was 135 % of control. The T/C (T/C endpoint: mean survival time, dose: 1125.0 mg/kg/injection, schedule: Q02DX004 (ip), vehicle: saline) was 146 % of control, the T/C (T/C endpoint: mean survival time, dose: 1200.0 mg/kg/injection, schedule: Q01DX005 (ip), vehicle: saline) was 127 % of control and the T/C (T/C endpoint: mean survival time, dose: 1200.0 mg/kg/injection, schedule: Q01DX009 (ip), vehicle: saline, evaluated on day 30) was 142, 144, 162, 171 % of control. For the same compound, the T/C (T/C endpoint: mean survival time, dose: 1200.0 mg/kg/injection, schedule: Q01DX009 (ip), vehicle: saline, evaluated on day 60) was 171 % of control, the T/C (T/C endpoint: mean survival time, dose: 1200.0 mg/kg/injection, schedule: Q01DX009 (sc), vehicle: saline) was 127 % of control [9 of 10 alive] and the T/C (T/C endpoint: mean survival time, dose: 1200.0 mg/kg/injection, schedule: Q01DX010 (ip), vehicle: saline) was 93, 131, 137, 159 % of control. The T/C (T/C endpoint: mean survival time, dose: 1200.0 mg/kg/injection, schedule: Q03DX Z (ip), vehicle: saline) was 143 % of control [5 of 6 alive], the T/C (T/C endpoint: mean survival time, dose: 1200.0 mg/kg/injection, schedule: Q03HX024 (ip), vehicle: saline) was 134 % of control and the T/C (T/C endpoint: mean survival time, dose: 1200.0 mg/kg/injection, schedule: Q04DX003 (ip), vehicle: saline) was 130 % of control. The T/C (T/C endpoint: mean survival time, dose: 1200.0 mg/kg/injection, schedule: Q08DX002 (ip), vehicle: saline) was 125 % of control, the survivor count (T/C endpoint: mean survival time, dose: 1600.0 mg/kg/injection, schedule: Q01DX006 (iv), vehicle: saline) was 2 of 6 and the T/C (T/C endpoint: mean survival time, dose: 1600.0 mg/kg/injection, schedule: Q01DX Z (ip), vehicle: saline) was 129 % of control. The T/C (T/C endpoint: mean survival time, dose: 1600.0 mg/kg/injection, schedule: Q01DX Z (sc), vehicle: saline) was 130 % of control, the T/C (T/C endpoint: mean survival time, dose: 1800.0 mg/kg/injection, schedule: Q## X032 (ip), vehicle: saline) was 125 and 129 % of control and the T/C (T/C endpoint: mean survival time, dose: 2000.0 mg/kg/injection, schedule: Q## X004 (ip), vehicle: saline) was 139 % of control. For the same compound, the survivor count (T/C endpoint: mean survival time, dose: 2237.0 mg/kg/injection, schedule: Q01DX015 (ip), vehicle: carboxymethylcellulose (CMC)) was 5 of 8, the survivor count (T/C endpoint: mean survival time, dose: 2400.0 mg/kg/injection, schedule: Q01DX005 (ip), vehicle: saline) was 3 of 10 and the T/C [1] was 137 % of control [5 of 6 alive]. The survivor count [1] was 1 of 6, 3 of 6, 5 of 10, 4 of 6, the survivor count (T/C endpoint: mean survival time, dose: 2400.0 mg/kg/injection, schedule: Q01DX009 (sc), vehicle: saline) was 10 of 10 and the survivor count (T/C endpoint: mean survival time, dose: 2400.0 mg/kg/injection, schedule: Q01DX010 (ip), vehicle: saline) was 0 of 6 and 2 of 6. The T/C (T/C endpoint: mean survival time, dose: 2400.0 mg/kg/injection, schedule: Q03DX Z (ip), vehicle: saline) was 141 % of control, the T/C (T/C endpoint: mean survival time, dose: 2400.0 mg/kg/injection, schedule: Q03HX024 (ip), vehicle: saline) was 145 % of control and the T/C (T/C endpoint: mean survival time, dose: 2400.0 mg/kg/injection, schedule: Q04DX003 (ip), vehicle: saline) was 139 % of control. The T/C (T/C endpoint: mean survival time, dose: 2696.0 mg/kg/injection, schedule: Q## X032 (ip), vehicle: saline) was 131 % of control, the survivor count (T/C endpoint: mean survival time, dose: 2800.0 mg/kg/injection, schedule: Q01DX001 (ip), vehicle: saline) was 3 of 6 and the T/C (T/C endpoint: mean survival time, dose: 3082.0 mg/kg/injection, schedule: Q01DX001 (ip), vehicle: saline) was 125 % of control. The survivor count (T/C endpoint: mean survival time, dose: 3696.0 mg/kg/injection, schedule: Q01DX001 (ip), vehicle: saline) was 4 of 10 and 2 of 4, the T/C (T/C endpoint: mean survival time, dose: 4000.0 mg/kg/injection, schedule: Q## X032 (ip), vehicle: saline) was 139 % of control and the survivor count (T/C endpoint: mean survival time, dose: 4500.0 mg/kg/injection, schedule: Q01DX001 (ip), vehicle: saline) was 0 of 10. For the same compound, the survivor count (T/C endpoint: mean survival time, dose: 4600.0 mg/kg/injection, schedule: Q01DX001 (ip), vehicle: saline) was 0 of 10, the survivor count (T/C endpoint: mean survival time, dose: 4800.0 mg/kg/injection, schedule: Q01DX001 (sc), vehicle: saline) was 5 of 10 and the survivor count (T/C endpoint: mean survival time, dose: 6750.0 mg/kg/injection, schedule: Q01DX001 (ip), vehicle: saline) was 0 of 10. For the same compound, the T/C (T/C endpoint: median survival time, dose: 150.0 mg/kg/injection, schedule: Q01DX009 (ip), vehicle: saline) was 130 % of control, the T/C (T/C endpoint: median survival time, dose: 300.0 mg/kg/injection, schedule: Q01DX009 (ip), vehicle: saline) was 148 % of control and the T/C (T/C endpoint: median survival time, dose: 1064.0 mg/kg/injection, schedule: Q04DX003 (ip), vehicle: saline) was 126 % of control. The survivor count (T/C endpoint: median survival time, dose: 2400.0 mg/kg/injection, schedule: Q01DX009 (ip), vehicle: saline) was 4 of 6 and the T/C (T/C endpoint: median survival time, dose: 2428.0 mg/kg/injection, schedule: Q04DX003 (ip), vehicle: saline) was 136 % of control.
